This note sets out measurements from paper PMC4890852.

Sequences of proteins named here, by UniProt entry; tags and fusion partners are left off.
UniProt P02828: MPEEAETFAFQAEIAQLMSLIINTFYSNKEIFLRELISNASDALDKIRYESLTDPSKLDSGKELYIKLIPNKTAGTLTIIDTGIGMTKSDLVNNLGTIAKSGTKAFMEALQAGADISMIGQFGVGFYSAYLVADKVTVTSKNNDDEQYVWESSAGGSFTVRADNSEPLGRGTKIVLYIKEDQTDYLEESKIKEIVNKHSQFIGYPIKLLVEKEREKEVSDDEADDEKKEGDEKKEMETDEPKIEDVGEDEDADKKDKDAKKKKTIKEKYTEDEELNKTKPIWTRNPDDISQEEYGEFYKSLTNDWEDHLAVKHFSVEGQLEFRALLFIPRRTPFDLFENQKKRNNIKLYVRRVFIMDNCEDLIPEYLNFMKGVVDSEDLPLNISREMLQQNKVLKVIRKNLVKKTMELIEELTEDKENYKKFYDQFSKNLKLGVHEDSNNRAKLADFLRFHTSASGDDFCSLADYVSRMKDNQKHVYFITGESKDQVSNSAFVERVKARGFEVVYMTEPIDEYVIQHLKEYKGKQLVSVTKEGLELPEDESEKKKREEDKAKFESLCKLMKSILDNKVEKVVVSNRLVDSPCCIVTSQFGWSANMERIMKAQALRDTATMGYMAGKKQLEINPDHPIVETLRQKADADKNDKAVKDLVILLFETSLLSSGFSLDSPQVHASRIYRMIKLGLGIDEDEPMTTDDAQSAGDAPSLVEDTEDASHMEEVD

Results are given in words; binding and its absence hold for the method and conditions named. Binding seen in cells or lysates may run through a third protein. These calls come from enrichment with a bait or labelling near it, and not all partners need be listed. Tags and fused reporters may be left off the sequences shown.

The target in the assay is T1, HA:Nmnat (Drosophila NMNAT) (Drosophila) (UniProt Q9VC03).
T1 sequence: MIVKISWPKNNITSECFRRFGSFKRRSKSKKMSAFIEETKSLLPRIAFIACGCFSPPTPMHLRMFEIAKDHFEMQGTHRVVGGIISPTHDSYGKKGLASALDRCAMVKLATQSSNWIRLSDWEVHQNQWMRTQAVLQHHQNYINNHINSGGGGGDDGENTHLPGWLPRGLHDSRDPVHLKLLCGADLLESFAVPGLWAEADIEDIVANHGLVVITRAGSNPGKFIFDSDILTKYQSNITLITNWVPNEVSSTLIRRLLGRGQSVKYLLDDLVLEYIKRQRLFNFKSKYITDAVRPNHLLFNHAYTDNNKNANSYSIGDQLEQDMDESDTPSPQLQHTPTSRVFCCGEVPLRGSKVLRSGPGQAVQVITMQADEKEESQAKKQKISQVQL
The assay is described as follows: affinity purification with mass spectrometry; heads of flies expressing HA:Nmnat; lysis in 25 mM Tris-HCl pH 7.5, 150 mM NaCl, 5 mM EDTA, 1% NP-40, 1 mM DTT; anti-HA affinity gel, eluted with HA peptide; LC-MS/MS.

In the case of “HSP83, the Drosophila HSP90 homolog (from UniProt P02828 1-717)”, the binding entry is given as “binds”.
